These are yes or no findings as the source states them, for the method shown. For some of these results: Binding seen in cells or lysates may run through a third protein. Some results given as binding are weak or reduced against the parent protein; the word gives no strength. For some of these results: Sequences can lack the tags named with a protein.
Legend:
[1] = biological target: T1, cYFP-POT1a (N. benthamiana) (Arabidopsis thaliana) (UniProt Q56Y52); experiment: split reporter; BiFC, nYFP/cYFP constructs (pE-SPYNE-GW, pE-SPYCE-GW, pC-SPYNE-GW) transiently expressed in N. benthamiana leaves, confocal microscopy after 3 days
T1 sequence: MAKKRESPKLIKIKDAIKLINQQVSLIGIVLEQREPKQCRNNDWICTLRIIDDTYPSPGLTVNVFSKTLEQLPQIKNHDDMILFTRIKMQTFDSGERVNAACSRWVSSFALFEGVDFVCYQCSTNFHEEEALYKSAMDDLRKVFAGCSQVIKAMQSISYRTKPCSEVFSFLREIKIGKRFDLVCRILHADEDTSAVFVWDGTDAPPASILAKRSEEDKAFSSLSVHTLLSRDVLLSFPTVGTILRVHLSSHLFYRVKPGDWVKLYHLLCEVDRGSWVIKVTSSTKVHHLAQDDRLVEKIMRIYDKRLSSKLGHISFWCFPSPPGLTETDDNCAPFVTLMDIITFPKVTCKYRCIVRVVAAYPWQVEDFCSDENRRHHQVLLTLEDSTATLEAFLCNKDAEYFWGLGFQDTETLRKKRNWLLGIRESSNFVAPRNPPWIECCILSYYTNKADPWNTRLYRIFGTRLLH

[2] = biological target: T2, AtTERT RID construct (1-271 aa) (Arabidopsis thaliana) (UniProt Q9SPU7); experiment: two-hybrid; Matchmaker GAL4 system, pGADT7-DEST/pGBKT7-DEST, S. cerevisiae PJ69-4α, 30 °C; growth on -LWH plates (with increasing 3-aminotriazol) and -LWHAde plates
T2 sequence: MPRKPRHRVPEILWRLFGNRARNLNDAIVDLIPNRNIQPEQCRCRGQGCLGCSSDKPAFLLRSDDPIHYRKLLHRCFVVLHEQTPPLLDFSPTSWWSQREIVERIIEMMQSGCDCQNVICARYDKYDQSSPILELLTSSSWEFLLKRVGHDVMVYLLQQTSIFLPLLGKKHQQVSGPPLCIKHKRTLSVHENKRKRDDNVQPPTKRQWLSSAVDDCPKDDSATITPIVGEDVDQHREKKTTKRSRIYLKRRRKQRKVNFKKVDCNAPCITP

[3] = biological target: T3, AtTERT TEN construct (1-233 aa) (Arabidopsis thaliana) (UniProt Q9SPU7); experiment: as above
T3 sequence: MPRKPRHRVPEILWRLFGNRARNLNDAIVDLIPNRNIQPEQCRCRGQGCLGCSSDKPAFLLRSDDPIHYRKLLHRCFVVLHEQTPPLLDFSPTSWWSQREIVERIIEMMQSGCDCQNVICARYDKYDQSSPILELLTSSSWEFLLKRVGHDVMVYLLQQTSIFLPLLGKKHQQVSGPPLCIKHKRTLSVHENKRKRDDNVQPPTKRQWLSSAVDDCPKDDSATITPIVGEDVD

[4] = biological target: T4, POT1a (Arabidopsis thaliana) (UniProt Q56Y52); experiment: as above
T4 sequence: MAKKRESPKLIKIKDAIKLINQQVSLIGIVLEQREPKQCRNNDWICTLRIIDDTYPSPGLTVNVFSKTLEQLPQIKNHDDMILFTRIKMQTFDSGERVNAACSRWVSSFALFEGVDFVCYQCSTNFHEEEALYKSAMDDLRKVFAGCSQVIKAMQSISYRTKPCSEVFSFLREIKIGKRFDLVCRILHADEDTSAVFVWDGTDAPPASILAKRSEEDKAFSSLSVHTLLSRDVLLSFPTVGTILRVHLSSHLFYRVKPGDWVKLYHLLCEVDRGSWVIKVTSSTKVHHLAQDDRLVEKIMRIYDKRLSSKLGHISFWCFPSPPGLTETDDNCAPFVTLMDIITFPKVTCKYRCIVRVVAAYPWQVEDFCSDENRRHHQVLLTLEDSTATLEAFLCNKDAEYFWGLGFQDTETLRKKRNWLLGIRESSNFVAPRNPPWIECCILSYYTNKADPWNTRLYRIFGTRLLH

Binder | binding [1] | binding [2] | binding [3] | binding [4]
RAD23-3 BiFC construct (protein, UniProt Q84L31 1-419) MKIFVKTLKGTHFEIEVKPEDSVVDVKKNIESVQGADVYPAAKQMLIHQGKVLKDETTIEENKVAENSFIVIMMNKSKPASAAASSASAGTSQAKSIPPSTSQPSISPQTPASVSAPVAPAPTRPPPPAPTPTPAPVAATETVTTPIPEPVPATISSSTPAPDSAPVGSQGDVYGQAASNLAAGSNLESTIQQILDMGGGTWDRETVVLALRAAFNNPERAVEYLYTGIPEQAEVPPVARPPASAGQPANPPAQTQQPAAAPASGPNANPLDLFPQGLPNVGGNPGAGTLDFLRNSQQFQALRAMVQANPQVLQPMLQELGKQNPNLMRLIQDHQADFLRLINEPVEGGGESGNLLGQMAAGMPQPQAIQVTHEEREAIERLEAMGFERALVLEVFFACNKNEELAANYLLDHMHEFEE | binds | – | – | –
ImpA6 (protein, UniProt Q9FWY7 1-538) MSYKPSAKTEVRRNRYKVSVDADEGRRRREDNMVEIRKNKREENLQKKRREGFNPSMASQPGQDFSSSLPTETRLENIQQMIAGVMSEDRDLQLEATASFRRLLSIERNPPINEVVQSGVVPHIVQFLSRDDFTQLQFEAAWALTNIASGTSENTRVIIDSGAVPLFVKLLSSASEEVREQAVWALGNVAGDSPKCRDHVLSCEAMMSLLAQFHEHSKLSMLRNATWTLSNFCRGKPQPAFEQTKAALPALERLLHSTDEEVLTDASWALSYLSDGTNEKIQTVIDAGVIPRLVQLLAHPSPSVLIPALRTIGNIVTGDDIQTQAVISSQALPGLLNLLKNTYKKSIKKEACWTISNITAGNTSQIQEVFQAGIIRPLINLLEIGEFEIKKEAVWAISNATSGGNHDQIKFLVSQGCIRPLCDLLPCPDPRVVTVTLEGLENILKVGEAEKNLGNTGNDNLYAQMIEDADGLDKIENLQSHDNNEIYEKAVKILESYWAADDEEEDIGGVDAPENVQSSGFQFGNQSGNAPTGGFNFG | – | binds | binds | –
AT3G59020 protein, a member of the importin beta family (protein, UniProt F4J738 1-1030) MDLPSLALIVGAAAFSPNPDERRAAEQSLNQLQHTPQHLIRILQIIVDGGSDLSVRQSASIHFKNFIAKHWEPHSGDQNIILPSDKNVVRNQILVFVSQVPPILRVQMGECLKTIIYADYPEQWPELLDWVKQNLQKPQVYGALFVLRILSSKYEFKSDEDRAPIHRVVEETFPHLLNIFNNLVHVENPSLEVADHIKLICKIFWSCIYLELPRPLFDPNFFNAWMGLFLNILERPVPVEGQPEDPELRKSWGWWKAKKWIAHILNRLYTRFGDLKLQNPDNKAFAQMFQINYAAKILECHLKLLNAIRIGGYLPDRVINLILQYLSNSISKSSMYNLLQPHLNTLLFEIVFPLMCFNDNDQMLWDEDPHEYVRKGYDIIEDLYSPRTASMDFVTELVRKRGKENFPKFIQFVVDIFKRYNEASLENKPYRLKDGALLAVGTLCDKLRQTEPYKSELENMLVQHVFPEFSSPAGHLRAKAAWVAGQYANIDFSDQSNFSKALHCVISGMCDLELPVRVDSVFALRSFIEACKDLDEIRPVLPQLLDEFFKLMKEVENEDLAFTLETIVYKFGEEISPYALGLCQNLASAFWRCIDTDNGDDETDDAGALAAVGCLRAISTILESISSLPHLYGQIEPQLLPIMRKMLTTDGQDVFEEVLEIVSYITTFSPTISLEMWSLWPLMMEALVDWAIDFFPNILVPLHNYISRGTGHYLTCKEPDYQQNLWNVISVLMANKNIDDSDLEPAPKLLGIVLQTCKGQVDQWVEPYLRITLDRLRGAEKSSFKCLLVEVVANAFYYNTPLALGILQRFGIATEIFTLWFQMLQEKKKSGARSNFKREHDKKVCILGLTSLFSLPAGQLPGEVLPHVFRALLELLVAYKDQLAEAAKAEEEEEDEDGDDDDMDEFQTDDEDEDGDDENPDETDGSTLRKLAAQAKDFRSYSDDDDFSDDDFSDDEELESPIDEVDPFVLFMDAVTAMQVSDSPRFQSLTQTLDPHYHGLASTIAQHTELRRAEILKEKLEKQSSATVAS | – | binds weakly | – | –
HSP90-7 (protein, UniProt Q9STX5 1-823) MRKRTLVSVLFLFSLLFLLPDQGRKLHANAEESSDDVTDPPKVEEKIGGHGGLSTDSDVVHRESESMSKKTLRSNAEKFEFQAEVSRLMDIIINSLYSNKDIFLRELISNASDALDKIRFLALTDKDVLGEGDTAKLEIQIKLDKAKKILSIRDRGIGMTKEDLIKNLGTIAKSGTSAFVEKMQSSGDLNLIGQFGVGFYSAYLVADYIEVISKHNDDSQYVWESKANGKFAVSEDTWNEPLGRGTEIRLHLRDEAGEYLEESKLKELVKRYSEFINFPISLWASKEVETEVPVEEDESADEETETTSTEEEKEEDAEEEDGEKKQKTKKVKETVYEWELLNDVKAIWLRSPKEVTEEEYTKFYHSLSKDFTDEKPMAWSHFNAEGDVEFKAVLYVPPKAPHDLYESYYNSNKANLKLYVRRVFISDEFDELLPKYLSFLKGLVDSDTLPLNVSREMLQQHSSLKTIKKKLIRKALDMIRKLAEEDPDEIHDDEKKDVEKSGENDEKKGQYTKFWNEFGKSVKLGIIEDAANRNRLAKLLRFETTKSDGKLTSLDQYIKRMKKSQKDIFYITGSSKEQLEKSPFLERLIKKGYEVIFFTDPVDEYLMQYLMDYEDKKFQNVSKEGLKVGKDSKDKELKEAFKELTKWWKGNLASENVDDVKISNRLADTPCVVVTSKFGWSANMERIMQSQTLSDANKQAYMRGKRVLEINPRHPIIKELKDRIASDPEDESVKETAQLMYQTALIESGFILTDPKDFAARIYNSVKSGLNISPDAVADEEIEAAEEPETSEATETKSDDLAGGLNIEAEPVEQQEENTKDEL | – | binds | – | binds
armadillo-repeat containing protein LFR (leaf and flower related) (protein, UniProt Q9LS90 1-460) MQKRELGKSGGNSGGSSGPPAKRGRPFGSTSANSAAAAAAAAAADAMSPSALLGPSLLVHNSFVEQNNRRIVLALQSGLKSEVTWALNTLTLLSFKEKEDIRRDVMPLAKIAGLLDALLLIIDDWRDIALPKDLTRGTRVRTLGTNASVTGFGNEYDALASIQPPGSGIGSSAAEALGKKSTGKHQSSQWWMEEDGLFNLDDEGRSEKQMCAIAASNVIRNFSFMPDNEVVMAQHRHCLETVFQCIHDHMTEDEELVTNSLETIVNLAHLMDLRIFSSLKQSYININEKKAVQAVVGILNSSVKAWNCAAAELLGRLIINPDNEPFISPLIPQIHKRLIDLLSIQAVDAQAAAVGALYNLVEVNMDCRLKLASERWAVDRLLKVIKTPHPVPEVCRKAAMILENLVSEPQNRGLLLAYENAFAELLFQEGKYSDSFARILYELTARSNSRVASARGIWGM | – | – | binds | binds
RPA3 (replication protein A3) (protein, UniProt Q6NLG7 1-106) MDTSSPAAFVNGALLRRYIGQKVRAVIQVIRSDVGSVIGKSTDDQQIVVKGSPQPPLTTYLEVIGIAETDNTIRAEVWTNFGDSFDVQNYNELCKLANGEFRHLFI | – | – | no binding | no binding
ETG1 (E2F target gene 1) (protein, UniProt Q501D5 1-589) MGGPAYDCLTNPLGAVRFSFVNALSSGYDPASSVGKDWGVVDLFRHYFSDESAISQVPILDSSSIKWVQPKTLVRFRGMIQDMLGNEFYAGAYKDDSTWRTNKYSDVSQFPEGSSTEIQVWERRLLYCVPVPGKNQWTECSSQELKNRFLDLTGQNREKRVRVDEEMTDSMDSSTLEAGRNGSPFKKMKVGEATSSASESQVPQTSGIPPATSADSLPCLVKIYDSPESDLKLNDVVEFLGVLTFDPIVMMDTDTLDENSDALSEAESVQMPSGKVPRLHCLIHRKLETQHFLHGSSLLPEPKSPQIFKEIRESLMKYLTGLLGNDHIAAQFLLLHLLSKVHGRVDNVAVGKLSLNLIHLNKESMSIFGTQLSGALKSLLPFTQSIPLTIEYLNTASFGPKKDYGINRLMPGVLQIADGTHLILDETELQPGTLNSVGVENANLLKNLLECQKVEYDFQYYKMEMATDVQMLIFSEGKSNIMPADLVLPLQPSQVNSLEVITPETAETWRCYLATCKSLSHSIGQELQQVVENDLVAARQTDRSLGSQDLSRLLTMARMMSVSYGETTLSLEHWQMVLELERLRKERLK | – | – | no binding | no binding
RH38 (protein, UniProt Q93ZG7 1-496) MADTVEKVPTVVESSSSSTVEASNSAEKTEPTTEKKKWGDVEDDDDEEEAVSELNSLSIKEEEKPDSILEEPEDSNIKAVTSGDTPYTSASRFEDLNLSPELMKGLYVEMKFEKPSKIQAISLPMIMTPPHKHLIAQAHNGSGKTTCFVLGMLSRVDPTLREPQALCICPTRELANQNMEVLQKMGKFTGITAELAVPDSTRGAPAATRGAPVSAHVVIGTPGTLKKWMAFKRLGLNHLKILVFDEADHMLATDGFRDDSLKIMKDIGRVNPNFQVLLFSATFNETVKDFVARTVKDPNQLFVKREDLALDSVKQYKVVCPKEQNKIEVIKDQIMELGDIGQTIIFVKTKASAQKVHKALAEMGYDVTSVHGNLTESDRDKIVKEFKECLTQVLIATDVIARGFDQQRVNLVVNYNLPTKYETGEPDYEVYLHRVGRAGRFGRKGAVFNLLLDDGWDKEVMEKIEKYFEANVKEIKSWNSEEEYKSALKEAGLLDE | – | no binding | – | –

Reference: article PMC8745574
